{"source": "PubChem BioAssay AID1159584 (Peter MacCallum Cancer Centre, 2016)", "assay": "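Knock-downs that harm CDH1-null cells more than parental MCF10A cells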 (primary screen)", "system": "human MCF10A breast epithelial cells, parental and CDH1-null", "reagents": "siRNA against human genes", "detection": "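ATP luminescence (CellTiter-Glo) viability per line relative to mean mock wells over all plates, and the ratio of CDH1-null to parental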", "reading the numbers": "CDH1-null / parental viability ratio: higher = CDH1-null cells survive relatively better than parental", "note": "In all, the deposit lists about 18,000 reagents; below is an unselected part. Further read-outs or replicates are left out here. Not given: the amount of reagent, the time to read-out."}
{"gene": "VCY1B (variable charge Y-linked 1B)", "CDH1-null / parental viability ratio": 1.1}
{"gene": "CCDC144BP (coiled-coil domain containing 144B, pseudogene)", "CDH1-null / parental viability ratio": 0.9}
{"gene": "PPIC (peptidylprolyl isomerase C)", "CDH1-null / parental viability ratio": 0.95}
{"gene": "AMY2B (amylase alpha 2B)", "CDH1-null / parental viability ratio": 0.91}
{"gene": "DMRTC2 (DMRT like family C2)", "CDH1-null / parental viability ratio": 0.8}
{"gene": "CLCN5 (Cl-/H+ antiporter 5)", "CDH1-null / parental viability ratio": 1.3}
{"gene": "PLEKHA4 (pleckstrin homology domain containing A4)", "CDH1-null / parental viability ratio": 1.12}
{"gene": "CEP57L1 (centrosomal protein 57 like 1)", "CDH1-null / parental viability ratio": 1.29}
{"gene": "RNF6 (ring finger protein 6)", "CDH1-null / parental viability ratio": 1.05}
{"gene": "ELANE (elastase, neutrophil expressed)", "CDH1-null / parental viability ratio": 1.17}
{"gene": "OR11G2 (olfactory receptor family 11 subfamily G member 2)", "CDH1-null / parental viability ratio": 1.05}
{"gene": "NKX3-1 (NK3 homeobox 1)", "CDH1-null / parental viability ratio": 1.24}
{"gene": "MESP2 (mesoderm posterior bHLH transcription factor 2)", "CDH1-null / parental viability ratio": 1.08}
{"gene": "FKRP (fukutin related protein)", "CDH1-null / parental viability ratio": 0.89}
{"gene": "TEP1 (telomerase associated protein 1)", "CDH1-null / parental viability ratio": 0.84}
{"gene": "LEFTY1 (left-right determination factor 1)", "CDH1-null / parental viability ratio": 1.03}
{"gene": "FHOD3 (formin homology 2 domain containing 3)", "CDH1-null / parental viability ratio": 1.19}
{"gene": "ZNF474 (zinc finger protein 474)", "CDH1-null / parental viability ratio": 0.93}
{"gene": "GPM6B (glycoprotein M6B)", "CDH1-null / parental viability ratio": 0.96}
{"gene": "DAP3 (death associated protein 3)", "CDH1-null / parental viability ratio": 0.64}
{"gene": "AS3MT (arsenite methyltransferase)", "CDH1-null / parental viability ratio": 0.97}
{"gene": "CPSF7 (cleavage and polyadenylation specific factor 7)", "CDH1-null / parental viability ratio": 1.07}
{"gene": "PSAT1 (phosphoserine aminotransferase 1)", "CDH1-null / parental viability ratio": 1.05}
{"gene": "TXN (thioredoxin)", "CDH1-null / parental viability ratio": 0.85}
{"gene": "PRH2 (proline rich protein HaeIII subfamily 2)", "CDH1-null / parental viability ratio": 1.05}
{"gene": "GPLD1 (glycosylphosphatidylinositol specific phospholipase D1)", "CDH1-null / parental viability ratio": 0.84}
{"gene": "CHRM2 (cholinergic receptor muscarinic 2)", "CDH1-null / parental viability ratio": 0.72}
{"gene": "RPS4X (ribosomal protein S4 X-linked)", "CDH1-null / parental viability ratio": 1.67}
{"gene": "ZNF518A (zinc finger protein 518A)", "CDH1-null / parental viability ratio": 0.82}
{"gene": "TDRP (testis development related protein)", "CDH1-null / parental viability ratio": 0.74}
{"gene": "ZNF514 (zinc finger protein 514)", "CDH1-null / parental viability ratio": 0.88}
{"gene": "WDR6 (WD repeat domain 6)", "CDH1-null / parental viability ratio": 0.91}
{"gene": "SYT7 (synaptotagmin 7)", "CDH1-null / parental viability ratio": 1}
{"gene": "EPB41L5 (erythrocyte membrane protein band 4.1 like 5)", "CDH1-null / parental viability ratio": 1.21}
{"gene": "SPR (sepiapterin reductase)", "CDH1-null / parental viability ratio": 1.02}

A few values from the entries so far:
ZNF514 (zinc finger protein 514), CDH1-null / parental viability ratio → 0.88
ZNF474 (zinc finger protein 474), CDH1-null / parental viability ratio = 0.93
Result for CHRM2 (cholinergic receptor muscarinic 2) under “CDH1-null / parental viability ratio”: 0.72
